Assay results: publication PMC7917804
Numbering of substitutions follows the chain as printed. No constants are given. Whether binding was seen depends on the method and setting. In cells and extracts the contact can be indirect. Some results given as binding are weak or reduced against the parent protein; the word gives no strength. For some of these results: Where a sequence is shown, tags or fusion partners need not be part of it.

Protein sequences, listed by entry. Tags and fused reporters are not part of them.
UniProt A5YKK6: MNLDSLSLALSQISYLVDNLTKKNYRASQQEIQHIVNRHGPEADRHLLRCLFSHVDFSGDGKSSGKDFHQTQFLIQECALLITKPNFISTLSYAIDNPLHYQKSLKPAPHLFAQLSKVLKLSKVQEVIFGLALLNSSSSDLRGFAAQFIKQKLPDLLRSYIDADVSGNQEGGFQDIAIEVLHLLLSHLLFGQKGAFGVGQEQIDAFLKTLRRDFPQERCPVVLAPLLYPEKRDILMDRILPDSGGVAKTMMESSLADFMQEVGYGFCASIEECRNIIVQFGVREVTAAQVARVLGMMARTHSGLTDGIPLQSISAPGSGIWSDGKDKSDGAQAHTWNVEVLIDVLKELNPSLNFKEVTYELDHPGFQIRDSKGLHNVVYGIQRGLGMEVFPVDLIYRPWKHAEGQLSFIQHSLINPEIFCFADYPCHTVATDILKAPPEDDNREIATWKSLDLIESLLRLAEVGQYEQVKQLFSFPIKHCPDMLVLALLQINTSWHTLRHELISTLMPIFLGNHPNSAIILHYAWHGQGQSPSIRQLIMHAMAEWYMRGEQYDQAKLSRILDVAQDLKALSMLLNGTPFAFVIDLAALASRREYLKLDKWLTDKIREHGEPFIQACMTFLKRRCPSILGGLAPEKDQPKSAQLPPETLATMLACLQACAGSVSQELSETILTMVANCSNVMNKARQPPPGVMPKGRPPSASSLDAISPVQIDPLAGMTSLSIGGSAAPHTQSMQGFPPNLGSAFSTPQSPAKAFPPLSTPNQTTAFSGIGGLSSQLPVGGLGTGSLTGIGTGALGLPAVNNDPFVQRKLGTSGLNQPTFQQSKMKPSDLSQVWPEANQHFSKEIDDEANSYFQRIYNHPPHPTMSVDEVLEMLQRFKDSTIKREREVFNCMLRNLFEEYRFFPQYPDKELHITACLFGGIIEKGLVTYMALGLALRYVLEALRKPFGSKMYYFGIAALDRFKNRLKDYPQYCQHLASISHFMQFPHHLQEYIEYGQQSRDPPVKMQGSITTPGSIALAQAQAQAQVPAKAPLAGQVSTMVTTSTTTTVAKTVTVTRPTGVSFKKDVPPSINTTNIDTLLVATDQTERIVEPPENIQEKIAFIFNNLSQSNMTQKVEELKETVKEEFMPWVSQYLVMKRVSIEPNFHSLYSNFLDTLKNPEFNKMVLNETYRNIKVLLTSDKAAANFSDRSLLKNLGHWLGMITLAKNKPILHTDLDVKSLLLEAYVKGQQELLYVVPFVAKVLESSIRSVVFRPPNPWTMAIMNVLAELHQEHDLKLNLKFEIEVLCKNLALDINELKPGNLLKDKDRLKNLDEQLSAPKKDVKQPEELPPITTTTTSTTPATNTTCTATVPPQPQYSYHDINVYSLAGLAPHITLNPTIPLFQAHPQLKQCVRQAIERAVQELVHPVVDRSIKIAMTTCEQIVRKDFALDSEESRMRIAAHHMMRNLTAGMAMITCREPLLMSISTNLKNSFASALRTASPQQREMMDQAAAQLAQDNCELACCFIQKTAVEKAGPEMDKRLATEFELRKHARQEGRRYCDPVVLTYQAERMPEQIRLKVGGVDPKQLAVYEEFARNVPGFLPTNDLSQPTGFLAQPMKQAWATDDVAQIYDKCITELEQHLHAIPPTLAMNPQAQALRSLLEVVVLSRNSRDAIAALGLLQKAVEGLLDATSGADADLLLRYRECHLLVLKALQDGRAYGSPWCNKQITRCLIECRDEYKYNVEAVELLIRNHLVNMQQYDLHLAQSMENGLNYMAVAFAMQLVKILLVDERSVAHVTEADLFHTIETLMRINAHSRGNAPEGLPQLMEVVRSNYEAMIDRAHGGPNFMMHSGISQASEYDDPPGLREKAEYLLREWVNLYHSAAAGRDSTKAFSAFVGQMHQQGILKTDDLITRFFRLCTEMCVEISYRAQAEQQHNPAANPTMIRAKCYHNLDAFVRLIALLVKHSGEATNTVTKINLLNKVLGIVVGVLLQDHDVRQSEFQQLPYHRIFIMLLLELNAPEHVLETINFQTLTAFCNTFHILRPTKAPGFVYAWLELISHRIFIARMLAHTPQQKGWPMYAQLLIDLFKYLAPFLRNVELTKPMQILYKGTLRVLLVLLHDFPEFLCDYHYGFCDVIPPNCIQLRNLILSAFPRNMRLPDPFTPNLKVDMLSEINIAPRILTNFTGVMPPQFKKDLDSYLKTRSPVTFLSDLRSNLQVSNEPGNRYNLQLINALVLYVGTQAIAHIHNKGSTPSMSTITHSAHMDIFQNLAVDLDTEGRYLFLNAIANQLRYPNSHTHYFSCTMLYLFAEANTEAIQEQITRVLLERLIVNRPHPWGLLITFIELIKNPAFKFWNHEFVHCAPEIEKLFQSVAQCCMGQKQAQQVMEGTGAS
UniProt Q92600: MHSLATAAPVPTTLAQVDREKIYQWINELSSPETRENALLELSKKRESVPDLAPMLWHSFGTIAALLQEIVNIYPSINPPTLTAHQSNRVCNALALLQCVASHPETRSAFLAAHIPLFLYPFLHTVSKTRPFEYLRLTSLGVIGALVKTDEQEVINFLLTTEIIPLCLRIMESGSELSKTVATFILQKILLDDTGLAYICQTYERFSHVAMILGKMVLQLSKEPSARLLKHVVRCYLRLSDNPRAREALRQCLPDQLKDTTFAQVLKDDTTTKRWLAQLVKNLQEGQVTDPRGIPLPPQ

Key:
[1] = biological target: T1, myc-GFP-TNRC6A-SD (silencing domain fragment, amino acids 1224-1709) (human) (UniProt Q8NDV7); experiment: co-IP; lysates of HeLa cells expressing GFP-tagged TNRC6A fragments, immunoprecipitated with anti-GFP antibody; endogenous CNOT1 and CNOT9 detected by Western blot
T1 sequence: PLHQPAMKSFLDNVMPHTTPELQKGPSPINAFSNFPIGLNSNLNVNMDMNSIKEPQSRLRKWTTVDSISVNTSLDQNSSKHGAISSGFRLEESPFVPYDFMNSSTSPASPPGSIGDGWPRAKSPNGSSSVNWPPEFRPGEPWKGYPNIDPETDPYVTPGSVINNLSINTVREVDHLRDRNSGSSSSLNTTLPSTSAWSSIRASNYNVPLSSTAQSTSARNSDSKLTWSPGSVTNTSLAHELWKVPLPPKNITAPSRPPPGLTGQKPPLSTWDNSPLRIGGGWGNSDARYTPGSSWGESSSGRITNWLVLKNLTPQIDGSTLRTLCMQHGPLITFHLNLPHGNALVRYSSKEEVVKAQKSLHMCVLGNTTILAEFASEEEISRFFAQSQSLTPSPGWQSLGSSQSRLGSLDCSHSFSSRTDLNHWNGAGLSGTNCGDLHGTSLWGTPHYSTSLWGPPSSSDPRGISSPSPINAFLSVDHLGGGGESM

[2] = biological target: T2, myc-GFP-TNRC6A-SD-CIM1 (amino acids 1224-1528) (human) (UniProt Q8NDV7); experiment: as above
T2 sequence: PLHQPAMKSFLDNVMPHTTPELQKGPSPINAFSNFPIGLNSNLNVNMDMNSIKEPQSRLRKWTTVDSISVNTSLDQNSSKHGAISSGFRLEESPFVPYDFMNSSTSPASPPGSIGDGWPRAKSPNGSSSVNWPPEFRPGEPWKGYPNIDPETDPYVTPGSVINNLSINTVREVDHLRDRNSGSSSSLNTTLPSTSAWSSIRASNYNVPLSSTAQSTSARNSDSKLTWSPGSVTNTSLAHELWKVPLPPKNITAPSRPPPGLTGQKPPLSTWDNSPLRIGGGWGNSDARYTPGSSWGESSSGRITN

[3] = biological target: T3, myc-GFP-TNRC6A-SD-CIM2 (amino acids 1529-1709) (human) (UniProt Q8NDV7); experiment: as above
T3 sequence: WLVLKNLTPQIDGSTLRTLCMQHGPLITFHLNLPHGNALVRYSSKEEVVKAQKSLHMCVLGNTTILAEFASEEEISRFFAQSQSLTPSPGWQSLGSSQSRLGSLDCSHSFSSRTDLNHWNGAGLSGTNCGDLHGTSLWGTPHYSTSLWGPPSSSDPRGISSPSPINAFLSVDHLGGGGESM

[4] = biological target: T4, FHS-TNRC6A-SD-S1332A/S1346A/S1616A/S1691A (human) (UniProt Q8NDV7); experiment: co-IP; lysates of HeLa cells expressing FHS-tagged TNRC6A-SD fragments (collected 24 h after transfection) or full-length TNRC6A (36 h), anti-FLAG antibody beads 2 h at 4 °C, lysis buffer with 140 mM NaCl, wash buffer with 300 mM NaCl and 0.5% NP40; endogenous CNOT1, CNOT9 and PABP detected by Western …
T4 sequence: T1 sequence with S109A, S123A, S393A, S468A

[5] = biological target: T5, FHS-TNRC6A-SD-S1616D/S1691D (human) (UniProt Q8NDV7); experiment: as above
T5 sequence: T1 sequence with S393D, S468D

| Substance | binding [1] | binding [2] | binding [3] | binding [4] | binding [5] |
| --- | --- | --- | --- | --- | --- |
| CNOT1 (from UniProt A5YKK6 1-2376) | binds | no binding | no binding | binds | binds |
| CNOT9 (from UniProt Q92600 1-299) | binds | no binding | no binding | binds | binds |
